For 105 sequences, z-score results are on record in PubChem BioAssay AID1347423 (Functional Genomics Laboratory (NCATS/FGL), 2020).

The whole screen tested about 52,000 sequences, of which about 210 (0.4%) were called active.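 The calls were made as follows: active = gene whose silencing raises cell survival under the drug, median off-target-corrected z-score across its silencing RNAs 2 or more; inactive = the rest.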 Some of the results follow.

The assay in a line: Resistance to Poly (ADP-Ribose) Polymerase inhibitor: Gene Identification via Genome-wide siRNA Screen. Particulars: mouse BRCA2 R2336H ES cells, olaparib, CellTiter-Glo viability; stronger effect = higher value. The procedure, abridged:
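Genome-wide siRNA screen (3 siRNAs/gene, 20 nM) in mouse ES cells carrying hypomorphic BRCA2 R2336H; olaparib 500 nM added 48 h post-transfection, CellTiter-Glo viability 72 h later. Normalized to plate-median negative control; MAD z-scores, gene median, seed-adjusted.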
Turning to GCCUCAAAACUUCUUGUUCTT against Mxd3, the z-score was inactive: 0.892.
Consider GGAGAUUCAGAUCAAAGAGTT against Scyl1, for which the z-score was inactive: 0.187.
Regarding GCCUAUGCCAAUUUGUGCGTT against Paqr6, the z-score is inactive: -0.19.
As to GGUGUCGCUUUUUUAUCAATT against Ikbkap, the z-score was inactive: 0.572.
As to “GGCCACUUGUCUCAUUGUGTT against 2900036K24Rik”, the z-score was inactive: -1.09.
As for CGCAUUUCGAAUAAAGACATT against BC024814, the z-score was inactive: 0.0213.
For GCUGGAAAGCUCACAGUUATT against Faah, the z-score is inactive: 0.647.
With CCUGUAUGGAGUAAUGGAATT against Eif4ebp3 the figure was inactive: 0.453.
For the sequence GCAUGAUCGUGUUUGUUUATT against Srpk2, the z-score is inactive: 1.22.
On to GGGCUCAUUGCUAAAACACTT against Sgcg, for which the z-score was inactive: -0.391.
GGUCGUUAUCACUCUCUAUTT against Pkd1l3: the z-score was inactive: 0.682.
For the sequence GGAGAUUGACACCAACACCTT against Clic5, the z-score was inactive: 0.894.
With GGUGAUGCAAGAAGAAAUUTT against Aldh3a2 the figure was inactive: 1.55.
With GGUUCACAGAGGCUAAGGUTT against Dph2l1 the figure was inactive: 1.23; with GGACUUGUCAUUAUUGUCCTT against Olfr397, inactive: 1.87.
Turning to GCUCUUGGGUUACUGGGUUTT against Olfr784, the z-score is inactive: -1.63.
For GGACAGUAUGAAUUUGAAUTT against Lcp1, the z-score was inactive: -0.393.
Consider GCUUGAGUCGUCAAAACUGTT against Mars, for which the z-score is inactive: -2.56.
As to “GCUUGAUCAUGCAAUCUAUTT against C330023M02Rik”, the z-score is inactive: -0.739.
CCCAAUAGGAGCUCAUCAUTT against Nr4a3: the z-score was inactive: 2.68.
As to GGAAGCAGUAAGAAAUCAGTT against Clpx, the z-score was inactive: 1.52.
As for “GGAAACGGUGCGACUUCAATT against 1200015N20Rik”, the z-score was inactive: -2.73.
As to GGACAAUGAUUACGACCACTT against Cacng4, the z-score was inactive: 0.29.
CGACCGUUGUUAUGGGCAATT against Pla2g5: the z-score was inactive: -0.335.
For GUUACUUGAAAAUUGGACATT against V1rd4, the z-score was inactive: -0.945.
Take GGUGCUAAGCAUGAAGCCUTT against Stk16: the z-score is inactive: 0.449.
With GCAUAGAGGACUACAACGATT against Optc the figure was inactive: 0.177; with GCUGUUUGAGGUCAUUCAUTT against AK122209, inactive: -0.363.
Take GGAGUGAAGGGUCAUCCAGTT against Col9a2: the z-score was inactive: -0.727.
Turning to GGGACAAGACUGUAUCUUUTT against Fgf4, the z-score was inactive: 1.67.
Regarding GCAUUCAGAAAGUGUAUAATT against Tm4sf8, the z-score was inactive: -1.36.
With “CGAAAGGAAACAGUCCAGATT against 2900016D05Rik” the figure was inactive: -0.217; with GCCCAAUAACCAAAUGCCATT against Tox, inactive: 0.845; with CCUCAUUUCAUUGUCUAGUTT against Ankrd25, inactive: -0.345.
Regarding GGCUGUCGAGUAUAAAUCUTT against Stfa3, the z-score was inactive: -0.0514.
For the sequence GGUUACAUCAUCUUAACACTT against AI449441, the z-score is inactive: 0.883.
With GGACGAAUGUCACAAUUUUTT against Sema4f the figure was inactive: 2.13; with GCCAUCAUCCAGCUAUGACTT against Olfr360, inactive: -1.32.
For GGGUUAAUCCCUAUCUCUUTT against Tcfe3, the z-score was inactive: 1.37.
Take “GGAAGCCUUAUAUCGGGCGTT against A430041B07”: the z-score is inactive: 0.138.
With GGAUACGUUACUCCAGUCATT against Ctsk the figure was inactive: -1.63; with GGGACAGAAAGGAAAGACUTT against Ndufb4, inactive: -2.03; with GGAACAGUCUGAAAUACACTT against Usp18, active: 0.039.
In the case of GGAAAUGAAGCAUCUGUAUTT against Txnip, the z-score is inactive: -1.32.
As to GGUGCUGCUUUAUUCCUGGTT against Dhcr7, the z-score is inactive: 0.469.
With “GGAAGACCAAGAGGAAAACTT against 4930553M18Rik”, the z-score was inactive: 1.03.
GCUCCAUACUCCGGAUCAGTT against Ftl2: the z-score is inactive: -0.974.
For the sequence GGAUAUUGAUGCAUACUUUTT against AF233884, the z-score is inactive: -2.25.
GAUCAAAGAUCAUGUGGCCTT against Fau: the z-score is inactive: -2.89.
On to GCUCCGUCAGACAAAGAAGTT against Apex1, for which the z-score is inactive: -1.04.
Turning to GGUAGUUCAUCUCAGGCCUTT against Ly64, the z-score was inactive: 0.0122.
Consider “GGCUUCUCUGCUCUAGGCUTT against 1700023M09Rik”, for which the z-score was inactive: 0.768.
For GGGCCAUUUUAGGUCCUUUTT against Rbm7, the z-score was inactive: 0.375.
On to GGAAUGAGAAGUUCUAUGATT against Chrna7, for which the z-score was inactive: 1.49.
Turning to GCACCAGUCGGUAUUCACATT against C1qg, the z-score was inactive: -0.301.
In the case of GGAAACAUGGCCAUGUUUUTT against Cyp7a1, the z-score is inactive: -0.537.
With GGAAAAGAUCUCGUGGUUGTT against Slc25a17, the z-score is inactive: -0.0183.
GGAACCCUUGGUUUUUUUUTT against Oas1a: the z-score was inactive: 1.68.
With “GCAACCAUUCAAACAUUUGTT against D630047F21Rik”, the z-score was inactive: 0.437.
For the sequence GGAUCAACAAGGAACUGGCTT against Ap2a1, the z-score is inactive: 3.82.
Turning to GGAUGAAAAGAUUGAACUCTT against Gart, the z-score was inactive: -0.451.
With CCAGCAAAAUCACUUAAUATT against Emb the figure was inactive: -0.588.
With GGAAGAAGGCAUUGUGAAGTT against Rps6ka2, the z-score was inactive: 0.785.
Regarding CCAUGCGGCUUGUAAUAUGTT against AU022252, the z-score is inactive: -1.63.
In the case of CCUCCACCGAAAUAAUUAATT against Dnajb3, the z-score was inactive: -0.0241.
With “CCUAAUACCUUCAGUGUUCTT against 2810422B04Rik” the figure was inactive: 2.12; with GCCGUCAUCACUGAAUUCATT against Olfr242, inactive: -0.964; with “GGGAGAUGAUAAUUAAGUUTT against C130079G13Rik”, inactive: -0.563.
With GGGCUGUUUUUACAAAACATT against AW121567 the figure was inactive: 1.45; with GGUGCUUCUGAGCAAGAAUTT against Adra2b, inactive: -2.26; with GCUUCUGUUCGUUACGUCCTT against Ndufc2, inactive: 0.012.
In the case of GGACCUGGUGGAGAACAAGTT against Kcnj12, the z-score is inactive: 0.289.
With GCACAAUUAGACUUCUUCCTT against Vat1 the figure was inactive: 1.67; with GGCAAAAUGAAUGAGGAAATT against Es1, inactive: -0.733; with GGUCAUCGAGACUCAGGAUTT against Ihh, inactive: -0.547.
Take CCACUUGUACGCACUCAAGTT against Ang4: the z-score was inactive: 1.32.
For GGGAUGAGUUCUCCUACCATT against Srm, the z-score was inactive: 0.914.
As for “CCCAGAAGACCCGAACUUUTT against E130006D01Rik”, the z-score is inactive: 0.351.
GCAGUGCAGUGGAUCAAAUTT against Arts1: the z-score was inactive: 0.903.
In the case of GGUGCUGAUGGAGAACUUCTT against Ruvbl1, the z-score was inactive: -2.63.
In the case of GCCUCCUUUAUGUAGCUUATT against Cdca3, the z-score was inactive: -0.536.
On to GGAAGACUUUGCUUAUUGGTT against Ocsp, for which the z-score is inactive: 0.0152.
As for GGAGAGUUGCCUCAAACAUTT against Ubadc1, the z-score was inactive: 1.42.
With GCCAACUAUCUUUUCUUAGTT against Ppp1cb the figure was inactive: -0.557; with GGUGUCUUUCUUCACUCUUTT against Olfr862, inactive: 0.0823.
Consider GGUUCAUGUGAACUUGCUGTT against Sesn2, for which the z-score was inactive: 0.535.
On to CCAUGACUAUUCUUACUUCTT against Olfr937, for which the z-score was inactive: -0.143.
Regarding CCUGAAUCUAGCCAUUCAATT against Olfr1080, the z-score is inactive: -0.135.
With GGAGUGAAUGAAUGAAUGATT against Vsx1 the figure was inactive: 0.17; with GGCUGAGUUUGGUAAGAGATT against Scly, inactive: 0.2.
For the sequence GCAGCUCACUUUGGAUGACTT against Irf4, the z-score is inactive: 0.0967.
Turning to CCUUUGAUUCACAAUGGUUTT against Smad4, the z-score was inactive: 0.00533.
Take GUCUUAAAAUUCCUGCUCCTT against Mrgprg: the z-score is inactive: -0.574.
Regarding CCCUGAAUAUAUGAAGAGCTT against Rhbdl, the z-score was inactive: 0.564.
As to “GCUAGAUUUCUACUGUGUCTT against 4930504E06Rik”, the z-score was inactive: -0.801.
With GGAUGCUUGGCUCAAUUACTT against Olfr992, the z-score is inactive: 0.0618.
As for CCUCAACAAAUCAUCCUAATT against Rgs18, the z-score was inactive: 1.3.
Consider CCUAUCCAGAUGUCAUUAATT against Hoxa11, for which the z-score was inactive: -1.27.
As to “GGCCUUUCUAUAUAGAGCCTT against 9130023D20Rik”, the z-score was inactive: -0.611.
For the sequence “CGAACUUUUCAGCAGAUACTT against 2610304G08Rik”, the z-score is inactive: -0.533.
With GCGCAGUUGCAAACCACACTT against Clec4g the figure was inactive: -0.579.
With GCAAGGUGUGGAAUGACCUTT against Snx8 the figure was inactive: 0.233; with GCGACAUCUGGAAAAAUACTT against Atp2a1, inactive: -1.47; with CCGCGUCUUGCUAUGGAAGTT against BC048937, inactive: 1.59.
With GCAAAUUAGGUUGUGAAUGTT against Gab1, the z-score is inactive: 0.188.
